The values that follow come from PMC7368280.

The target in experiment [1] is T1, ICU11-eGFP (gICU11-GFP in icu11-3) (Arabidopsis) (UniProt Q3ED68).
T1 sequence: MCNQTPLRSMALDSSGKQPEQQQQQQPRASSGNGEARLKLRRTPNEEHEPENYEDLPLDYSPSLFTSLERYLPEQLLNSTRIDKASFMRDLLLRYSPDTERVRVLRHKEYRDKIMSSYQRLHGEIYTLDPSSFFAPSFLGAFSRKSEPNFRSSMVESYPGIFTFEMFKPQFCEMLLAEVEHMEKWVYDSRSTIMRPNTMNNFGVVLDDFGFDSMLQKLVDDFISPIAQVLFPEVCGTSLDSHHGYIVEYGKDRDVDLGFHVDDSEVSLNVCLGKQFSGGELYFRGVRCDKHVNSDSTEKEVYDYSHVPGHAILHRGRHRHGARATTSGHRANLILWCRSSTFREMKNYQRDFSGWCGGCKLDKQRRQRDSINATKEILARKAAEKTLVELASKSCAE
Briefly: affinity purification with mass spectrometry; coIP-MS with GFP-tagged baits from Arabidopsis plants (gICU11-GFP icu11-3; 35S:GFP-CLF clf-50; gSWN-GFP), control 35S::GFP; two independent experiments; procedure in SI Appendix.

Experiment [2] concerns the target T2, EMF1-3XFLAG (in emf1) (Arabidopsis) (UniProt Q9LYD9).
T2 sequence: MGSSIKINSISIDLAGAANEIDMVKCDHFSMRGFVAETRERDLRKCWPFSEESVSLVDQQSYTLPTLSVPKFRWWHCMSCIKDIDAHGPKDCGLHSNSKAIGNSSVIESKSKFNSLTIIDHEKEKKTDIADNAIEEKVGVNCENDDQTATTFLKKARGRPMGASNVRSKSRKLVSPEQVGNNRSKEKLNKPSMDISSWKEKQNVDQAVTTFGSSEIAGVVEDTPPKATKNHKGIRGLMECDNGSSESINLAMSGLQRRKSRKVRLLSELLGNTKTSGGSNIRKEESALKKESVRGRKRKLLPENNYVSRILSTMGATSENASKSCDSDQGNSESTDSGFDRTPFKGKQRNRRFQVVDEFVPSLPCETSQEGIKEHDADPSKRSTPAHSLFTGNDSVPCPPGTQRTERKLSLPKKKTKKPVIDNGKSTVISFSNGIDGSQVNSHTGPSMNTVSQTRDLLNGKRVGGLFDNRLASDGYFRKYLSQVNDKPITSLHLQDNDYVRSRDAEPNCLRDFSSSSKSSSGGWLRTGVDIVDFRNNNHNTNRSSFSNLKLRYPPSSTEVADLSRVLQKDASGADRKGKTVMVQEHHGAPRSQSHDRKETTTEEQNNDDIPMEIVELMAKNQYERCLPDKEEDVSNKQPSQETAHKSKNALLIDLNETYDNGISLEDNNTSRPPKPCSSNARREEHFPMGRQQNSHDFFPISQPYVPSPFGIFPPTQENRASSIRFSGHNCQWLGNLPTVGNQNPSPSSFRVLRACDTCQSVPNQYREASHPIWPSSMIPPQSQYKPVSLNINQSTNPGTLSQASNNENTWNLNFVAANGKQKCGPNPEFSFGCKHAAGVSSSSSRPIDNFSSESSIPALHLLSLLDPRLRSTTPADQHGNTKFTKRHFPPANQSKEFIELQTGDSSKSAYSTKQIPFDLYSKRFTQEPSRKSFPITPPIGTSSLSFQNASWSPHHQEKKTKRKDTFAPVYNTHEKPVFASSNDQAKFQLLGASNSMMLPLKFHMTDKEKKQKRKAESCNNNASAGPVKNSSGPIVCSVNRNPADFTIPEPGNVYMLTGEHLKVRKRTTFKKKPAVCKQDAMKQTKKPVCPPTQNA
Nature of the experiment: affinity purification with mass spectrometry; coIP-MS with EMF1-3XFLAG as bait from Arabidopsis plants (EMF1-3XFLAG emf1), control Col-0; two independent experiments; procedure in SI Appendix.

Experiment [3] has as its target T3, ICU11-3xHA (gICU11-HA in icu11-3) (Arabidopsis) (UniProt Q3ED68).
T3 sequence: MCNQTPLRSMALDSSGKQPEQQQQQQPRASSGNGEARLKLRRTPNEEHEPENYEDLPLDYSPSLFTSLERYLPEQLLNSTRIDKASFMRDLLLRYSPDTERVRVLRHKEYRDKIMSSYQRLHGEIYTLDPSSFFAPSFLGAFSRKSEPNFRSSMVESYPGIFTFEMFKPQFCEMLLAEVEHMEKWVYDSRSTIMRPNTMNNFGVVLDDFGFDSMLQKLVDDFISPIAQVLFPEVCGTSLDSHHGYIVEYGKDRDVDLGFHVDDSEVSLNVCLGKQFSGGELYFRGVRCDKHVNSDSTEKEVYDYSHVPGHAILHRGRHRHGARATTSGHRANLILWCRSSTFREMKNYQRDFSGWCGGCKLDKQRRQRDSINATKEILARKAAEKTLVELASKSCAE
Nature of the experiment: affinity purification with mass spectrometry; coIP-MS with 3xHA-tagged ICU11 as bait from Arabidopsis plants (gICU11-HA icu11-3), control icu11-3; two independent experiments; procedure in SI Appendix.

No constants are given. Whether binding was seen depends on the method and setting. Binding seen in cells or lysates may run through a third protein. A yes stands for co-enrichment or nearness to the bait. Other partners may have been found. Where a sequence is shown, tags or fusion partners need not be part of it.

B1: FERTILIZATION … ENDOSPERM (protein, UniProt Q9LT47 1-369)
chain: MSKITLGNESIVGSLTPSNKKSYKVTNRIQEGKKPLYAVVFNFLDARFFDVFVTAGGNRITLYNCLGDGAISALQSYADEDKEESFYTVSWACGVNGNPYVAAGGVKGIIRVIDVNSETIHKSLVGHGDSVNEIRTQPLKPQLVITASKDESVRLWNVETGICILIFAGAGGHRYEVLSVDFHPSDIYRFASCGMDTTIKIWSMKEFWTYVEKSFTWTDDPSKFPTKFVQFPVFTASIHTNYVDCNRWFGDFILSKSVDNEILLWEPQLKENSPGEGASDVLLRYPVPMCDIWFIKFSCDLHLSSVAIGNQEGKVYVWDLKSCPPVLITKLSHNQSKSVIRQTAMSVDGSTILACCEDGTIWRWDVITK
On to B1, for which the binding entry in experiment [1], in experiment [2] and in experiment [3] was “binds” throughout.

B2: TELOMERE-REPEAT-BINDING (TRB) 1 (protein, UniProt Q8VWK4 1-300)
chain: MGAPKQKWTQEEESALKSGVIKHGPGKWRTILKDPEFSGVLYLRSNVDLKDKWRNMSVMANGWGSREKSRLAVKRTFSLPKQEENSLALTNSLQSDEENVDATSGLQVSSNPPPRRPNVRLDSLIMEAIATLKEPGGCNKTTIGAYIEDQYHAPPDFKRLLSTKLKYLTSCGKLVKVKRKYRIPNSTPLSSHRRKGLGVFGGKQRTSSLPSPKTDIDEVNFQTRSQIDTEIARMKSMNVHEAAAVAAQAVAEAEAAMAEAEEAAKEAEAAEAEAEAAQAFAEEASKTLKGRNICKMMIRA
As to B2, the binding entry in experiment [1] and in experiment [3] was “binds” in each case.

B3: CURLY LEAF (CLF), endogenous (protein, UniProt P93831 1-902)
chain: MASEASPSSSATRSEPPKDSPAEERGPASKEVSEVIESLKKKLAADRCISIKKRIDENKKNLFAITQSFMRSSMERGGSCKDGSDLLVKRQRDSPGMKSGIDESNNNRYVEDGPASSGMVQGSSVPVKISLRPIKMPDIKRLSPYTTWVFLDRNQRMTEDQSVVGRRRIYYDQTGGEALICSDSEEEAIDDEEEKRDFLEPEDYIIRMTLEQLGLSDSVLAELASFLSRSTSEIKARHGVLMKEKEVSESGDNQAESSLLNKDMEGALDSFDNLFCRRCLVFDCRLHGCSQDLIFPAEKPAPWCPPVDENLTCGANCYKTLLKSGRFPGYGTIEGKTGTSSDGAGTKTTPTKFSSKLNGRKPKTFPSESASSNEKCALETSDSENGLQQDTNSDKVSSSPKVKGSGRRVGRKRNKNRVAERVPRKTQKRQKKTEASDSDSIASGSCSPSDAKHKDNEDATSSSQKHVKSGNSGKSRKNGTPAEVSNNSVKDDVPVCQSNEVASELDAPGSDESLRKEEFMGETVSRGRLATNKLWRPLEKSLFDKGVEIFGMNSCLIARNLLSGFKSCWEVFQYMTCSENKASFFGGDGLNPDGSSKFDINGNMVNNQVRRRSRFLRRRGKVRRLKYTWKSAAYHSIRKRITEKKDQPCRQFNPCNCKIACGKECPCLLNGTCCEKYCGCPKSCKNRFRGCHCAKSQCRSRQCPCFAADRECDPDVCRNCWVIGGDGSLGVPSQRGDNYECRNMKLLLKQQQRVLLGISDVSGWGAFLKNSVSKHEYLGEYTGELISHKEADKRGKIYDRENCSFLFNLNDQFVLDAYRKGDKLKFANHSPEPNCYAKVIMVAGDHRVGIFAKERILAGEELFYDYRYEPDRAPAWAKKPEAPGSKKDENVTPSVGRPKKLA
Regarding B3, the binding result in experiment [1], in experiment [2] and in experiment [3] was “binds” throughout.

B4: SWINGER (SWN), endogenous (protein, UniProt Q9ZSM8 1-856)
chain: MVTDDSNSSGRIKSHVDDDDDGEEEEDRLEGLENRLSELKRKIQGERVRSIKEKFEANRKKVDAHVSPFSSAASSRATAEDNGNSNMLSSRMRMPLCKLNGFSHGVGDRDYVPTKDVISASVKLPIAERIPPYTTWIFLDRNQRMAEDQSVVGRRQIYYEQHGGETLICSDSEEEPEPEEEKREFSEGEDSIIWLIGQEYGMGEEVQDALCQLLSVDASDILERYNELKLKDKQNTEEFSNSGFKLGISLEKGLGAALDSFDNLFCRRCLVFDCRLHGCSQPLISASEKQPYWSDYEGDRKPCSKHCYLQLKAVREVPETCSNFASKAEEKASEEECSKAVSSDVPHAAASGVSLQVEKTDIGIKNVDSSSGVEQEHGIRGKREVPILKDSNDLPNLSNKKQKTAASDTKMSFVNSVPSLDQALDSTKGDQGGTTDNKVNRDSEADAKEVGEPIPDNSVHDGGSSICQPHHGSGNGAIIIAEMSETSRPSTEWNPIEKDLYLKGVEIFGRNSCLIARNLLSGLKTCLDVSNYMRENEVSVFRRSSTPNLLLDDGRTDPGNDNDEVPPRTRLFRRKGKTRKLKYSTKSAGHPSVWKRIAGGKNQSCKQYTPCGCLSMCGKDCPCLTNETCCEKYCGCSKSCKNRFRGCHCAKSQCRSRQCPCFAAGRECDPDVCRNCWVSCGDGSLGEAPRRGEGQCGNMRLLLRQQQRILLGKSDVAGWGAFLKNSVSKNEYLGEYTGELISHHEADKRGKIYDRANSSFLFDLNDQYVLDAQRKGDKLKFANHSAKPNCYAKVMFVAGDHRVGIFANERIEASEELFYDYRYGPDQAPVWARKPEGSKKDDSAITHRRARKHQSH
Regarding B4, the binding entry in experiment [1], in experiment [2] and in experiment [3] was “binds” in each case.

B5: EMBRYONIC FLOWER (EMF)2 (protein, UniProt Q8L6Y4 1-631)
chain: MPGIPLVSRETSSCSRSTEQMCHEDSRLRISEEEEIAAEESLAAYCKPVELYNIIQRRAIRNPLFLQRCLHYKIEAKHKRRIQMTVFLSGAIDAGVQTQKLFPLYILLARLVSPKPVAEYSAVYRFSRACILTGGLGVDGVSQAQANFLLPDMNRLALEAKSGSLAILFISFAGAQNSQFGIDSGKIHSGNIGGHCLWSKIPLQSLYASWQKSPNMDLGQRVDTVSLVEMQPCFIKLKSMSEEKCVSIQVPSNPLTSSSPQQVQVTISAEEVGSTEKSPYSSFSYNDISSSSLLQIIRLRTGNVVFNYRYYNNKLQKTEVTEDFSCPFCLVKCASFKGLRYHLPSTHDLLNFEFWVTEEFQAVNVSLKTETMISKVNEDDVDPKQQTFFFSSKKFRRRRQKSQVRSSRQGPHLGLGCEVLDKTDDAHSVRSEKSRIPPGKHYERIGGAESGQRVPPGTSPADVQSCGDPDYVQSIAGSTMLQFAKTRKISIERSDLRNRSLLQKRQFFHSHRAQPMALEQVLSDRDSEDEVDDDVADFEDRRMLDDFVDVTKDEKQMMHMWNSFVRKQRVLADGHIPWACEAFSRLHGPIMVRTPHLIWCWRVFMVKLWNHGLLDARTMNNCNTFLEQLQI
As for B5, the binding entry in experiment [1], in experiment [2] and in experiment [3] was “binds” in each case.
